Assay results reported in US20070010671A1, “Novel quinazoline derivatives and methods of treatment related to the use thereof” (priority 2003, published 2007).
At least one compound was matched to its structure with a doubt left.

Molecular target: MCH receptor (Homo sapiens, UniProt Q99705)
Experiment: High throughput functional screening FLIPR/FDSS6000: inhibition of MCH-evoked intracellular Ca2+ changes
Assay type: cell-based
Details: class by percent of control at 10^-7 M or IC50
Description: Subsequently, a functional based assay was used to confirm the lead hits, referred to as FLIPR™ (the Fluorometric Imaging Plate Reader) and FDSS6000™ (Functional Drug Screening System). This assay utilized 3 non-endozenous, constitutively active version of the MCH receptor.
The FLIPR and FDSS assays are able to detect intracellular Ca^2+ concentration in cells, which can be utilized to assess receptor activation and determine whether a candidate compound is an, for example, antagonist, inverse agonist or agonist to a Gq-coupled receptor. The concentration of free Ca^2+ in the cytosol of any cell is extremely low, whereas its concentration in the extracellular fluid and endoplasmic reticulum (ER) is very high. Thus, there is a large gradient tending to drive Ca^2+ into the cytosol across both the plasma membrane and ER. […]
Fluorometric Imaging Plate Reader system was used to allow for rapid, kinetic measurements of intracellular fluorescence in 96 well microplates (or 384 well microplates). Simultaneous measurements of fluorescence in all wells can be made by FLIPR or FDSS6000™ every second with high sensitivity and precision. […]

SMILES | class
CN(C)c1nc(N[C@H]2CC[C@@H](NC(=S)Nc3c(Br)cc(Br)cc3Br)CC2)nc2ccccc12 [compound 245, N-(cis-4-{[4-(dimethylamino)quinazolin-2-yl]amino}cyclohexyl)-N′-(2,4,6-tribromophenyl)thiourea] | 1 (Class 1: The value of percent of control at 10^−7 M was less than 40% or the value of IC50 was less than 50 nM.)
CN(C)c1nc(N[C@H]2CC[C@@H](CNC(=S)Nc3c(Br)cc(Br)cc3Br)CC2)nc2ccccc12 [compound 669, N-[(cis-4-{[4-(dimethylamino)quinazolin-2-yl]amino}cyclohexyl)methyl]-N′-(2,4,6-tribromophenyl)thiourea] | 2 (Class 2: The value of percent of control at 10^−7 M was from 40% to 60% or the value of IC50 was from 50 nM to 200 nM.)
